Like-named read-outs stand apart in the source and are kept apart here. These are yes or no findings as the source states them, for the method shown. Binding seen in cells or lysates may run through a third protein. A yes stands for co-enrichment or nearness to the bait. Other partners may have been found. For some of these results: Sequences can lack the tags named with a protein.
T1: HIGD2A with a C-terminal FLAG tag (human) (UniProt Q9BW72)
T1 sequence: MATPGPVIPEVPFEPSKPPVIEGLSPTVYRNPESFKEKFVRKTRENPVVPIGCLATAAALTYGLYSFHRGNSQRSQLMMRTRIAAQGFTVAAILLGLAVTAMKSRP

Amino acid sequences for entries named in this document (tags omitted). Residues count along the entry.
UniProt P56181, residues 35-108: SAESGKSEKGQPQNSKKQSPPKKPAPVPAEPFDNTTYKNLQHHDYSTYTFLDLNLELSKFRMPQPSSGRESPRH
UniProt P00414: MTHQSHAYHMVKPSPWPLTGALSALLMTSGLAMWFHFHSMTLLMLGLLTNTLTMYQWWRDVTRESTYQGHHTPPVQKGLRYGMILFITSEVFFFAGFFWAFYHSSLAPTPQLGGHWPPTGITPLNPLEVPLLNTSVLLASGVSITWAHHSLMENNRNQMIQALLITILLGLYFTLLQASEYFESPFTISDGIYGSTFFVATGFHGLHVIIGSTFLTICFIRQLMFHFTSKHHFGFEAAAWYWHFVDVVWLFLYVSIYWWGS
UniProt Q9Y241: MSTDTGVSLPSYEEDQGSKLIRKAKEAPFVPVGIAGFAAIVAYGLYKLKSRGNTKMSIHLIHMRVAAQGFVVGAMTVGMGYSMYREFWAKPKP
UniProt Q9P032: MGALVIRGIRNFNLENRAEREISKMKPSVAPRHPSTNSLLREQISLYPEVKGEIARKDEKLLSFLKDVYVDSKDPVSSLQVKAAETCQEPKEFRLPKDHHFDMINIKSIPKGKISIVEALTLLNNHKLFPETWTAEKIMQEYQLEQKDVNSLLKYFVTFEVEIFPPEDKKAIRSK


Legend:
Experiment in all cases: affinity purification with mass spectrometry
[1] = biological target: T1, HIGD2A with a C-terminal FLAG tag (human)
[2] = biological target: FLAG-tagged complex I subunit NDUFV3 (human) (UniProt P56181)
[3] = biological target: T1, HIGD2A with a C-terminal FLAG tag (human); remark: listed apart in the source
[4] = biological target: FLAG-tagged complex I subunit NDUFV3 (human) (UniProt P56181); remark: listed apart in the source

Row | Molecule | binding [1] | binding [3] | further results
1 | COX3 (MT-CO3), mtDNA-encoded subunit of complex IV (from UniProt P00414 1-261) | – | – | binding [2]: binds
2 | NDUFAF2, complex I assembly factor (human (endogenous in HEK293T)) | binds | – | –
3 | HIGD1A (from UniProt Q9Y241 1-93) | binds | – | –

Second part, led by results:

Row | binding [1] | binding [3] | Molecule | further results
4 | binds | – | NDUFAF4, complex I assembly factor (from UniProt Q9P032 1-175) | –
5 | – | binds | SCO1, complex IV assembly factor (protein, UniProt O75880 68-301) STARPPPPWSQKGPGDSTRPSKPGPVSWKSLAITFAIGGALLAGMKHVKKEKAEKLEKERQRHIGKPLLGGPFSLTTHTGERKTDKDYLGQWLLIYFGFTHCPDVCPEELEKMIQVVDEIDSITTLPDLTPLFISIDPERDTKEAIANYVKEFSPKLVGLTGTREEVDQVARAYRVYYSPGPKDEDEDYIVDHTIIMYLIGPDGEFLDYFGQNKRKGEIAASIATHMRPYRKKS | –
6 | – | binds | COA3, complex IV assembly factor (protein, UniProt Q9Y2R0 1-106) MASSGAGDPLDSKRGEAPFAQRIDPTREKLTPEQLHSMRQAELAQWQKVLPRRRTRNIVTGLGIGALVLAIYGYTFYSISQERFLDELEDEAKAARARALARASGS | binding [4]: binds

— paper doi:10.1101/787721
